Assay results as given in article PMC5014551.
Residue numbers refer to the chain shown, from its start. These are yes or no findings as the source states them, for the method shown. Binding seen in cells or lysates may run through a third protein. A yes stands for co-enrichment or nearness to the bait. Other partners may have been found. For some of these results: No binding means not detected with the bait. For some of these results: Where a sequence is shown, tags or fusion partners need not be part of it.

T1: Bol3m (H^101C Bol3), Strep-tagged (S. cerevisiae) (UniProt P39724)
T1 sequence: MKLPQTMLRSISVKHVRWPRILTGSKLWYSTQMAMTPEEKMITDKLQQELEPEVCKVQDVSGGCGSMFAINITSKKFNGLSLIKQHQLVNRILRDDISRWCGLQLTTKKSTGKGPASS

T2: Bol1m (H^93C Bol1), Strep-tagged (S. cerevisiae) (UniProt Q3E793)
T2 sequence: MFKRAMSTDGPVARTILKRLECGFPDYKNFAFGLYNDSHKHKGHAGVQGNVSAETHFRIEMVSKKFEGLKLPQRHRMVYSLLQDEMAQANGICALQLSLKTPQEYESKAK

T3: Bol1-Strep (S. cerevisiae) (UniProt Q3E793)
T3 sequence: T2 sequence with C93H

T4: Bol3-Strep (S. cerevisiae) (UniProt P39724)
T4 sequence: T1 sequence with C101H

B1: Aco1 (protein, UniProt P19414 17-778)
chain: ATVSNLTRDSKVNQNLLEDHSFINYKQNVETLDIVRKRLNRPFTYAEKILYGHLDDPHGQDIQRGVSYLKLRPDRVACQDATAQMAILQFMSAGLPQVAKPVTVHCDHLIQAQVGGEKDLKRAIDLNKEVYDFLASATAKYNMGFWKPGSGIIHQIVLENYAFPGALIIGTDSHTPNAGGLGQLAIGVGGADAVDVMAGRPWELKAPKILGVKLTGKMNGWTSPKDIILKLAGITTVKGGTGKIVEYFGDGVDTFSATGMGTICNMGAEIGATTSVFPFNKSMIEYLEATGRGKIADFAKLYHKDLLSADKDAEYDEVVEIDLNTLEPYINGPFTPDLATPVSKMKEVAVANNWPLDVRVGLIGSCTNSSYEDMSRSASIVKDAAAHGLKSKTIFTVTPGSEQIRATIERDGQLETFKEFGGIVLANACGPCIGQWDRRDIKKGDKNTIVSSYNRNFTSRNDGNPQTHAFVASPELVTAFAIAGDLRFNPLTDKLKDKDGNEFMLKPPHGDGLPQRGYDAGENTYQAPPADRSTVEVKVSPTSDRLQLLKPFKPWDGKDAKDMPILIKAVGKTTTDHISMAGPWLKYRGHLENISNNYMIGAINAENKKANCVKNVYTGEYKGVPDTARDYRDQGIKWVVIGDENFGEGSSREHAALEPRFLGGFAIITKSFARIHETNLKKQGLLPLNFKNPADYDKINPDDRIDILGLAELAPGKPVTMRVHPKNGKPWDAVLTHTFNDEQIEWFKYGSALNKIKADEKK
B2: Aco2 (protein, UniProt P39533 15-789)
chain: ATHANMFPSVSKNFQTKVPPYAKLLTNLDKIKQITNNAPLTLAEKILYSHLCDPEESITSSDLSTIRGNKYLKLNPDRVAMQDASAQMALLQFMTTGLNQTSVPASIHCDHLIVGKDGETKDLPSSIATNQEVFDFLESCAKRYGIQFWGPGSGIIHQIVLENFSAPGLMMLGTDSHTPNAGGLGAIAIGVGGADAVDALTGTPWELKAPKILGVKLTGKLNGWSTPKDVITKLAGLLTVRGGTGYIVEYFGEGVSTLSCTGMATICNMGAEIGATTSTFPYQEAHKRYLQATNRAEVAEAADVALNKFNFLRADKDAQYDKVIEIDLSAIEPHVNGPFTPDLSTPISQYAEKSLKENWPQKVSAGLIGSCTNSSYQDMSRVVDLVKQASKAGLKPRIPFFVTPGSEQIRATLERDGIIDIFQENGAKVLANACGPCIGQWNREDVSKTSKETNTIFTSFNRNFRARNDGNRNTMNFLTSPEIVTAMSYSGDAQFNPLTDSIKLPNGKDFKFQPPKGDELPKRGFEHGRDKFYPEMDPKPDSNVEIKVDPNSDRLQLLEPFKPWNGKELKTNVLLKVEGKCTTDHISAAGVWLKYKGHLENISYNTLIGAQNKETGEVNKAYDLDGTEYDIPGLMMKWKSDGRPWTVIAEHNYGEGSAREHAALSPRFLGGEILLVKSFARIHETNLKKQGVLPLTFANESDYDKISSGDVLETLNLVDMIAKDGNNGGEIDVKITKPNGESFTIKAKHTMSKDQIDFFKAGSAINYIGNIRRNE
B3: Lys4 (protein, UniProt P49367 18-693)
chain: LKGQNLTEKIVQSYAVNLPEGKVVHSGDYVSIKPAHCMSHDNSWPVALKFMGLGATKIKNPSQIVTTLDHDIQNKSEKNLTKYKNIENFAKKHHIDHYPAGRGIGHQIMIEEGYAFPLNMTVASDSHSNTYGGLGSLGTPIVRTDAAAIWATGQTWWQIPPVAQVELKGQLPQGVSGKDIIVALCGLFNNDQVLNHAIEFTGDSLNALPIDHRLTIANMTTEWGALSGLFPVDKTLIDWYKNRLQKLGTNNHPRINPKTIRALEEKAKIPKADKDAHYAKKLIIDLATLTHYVSGPNSVKVSNTVQDLSQQDIKINKAYLVSCTNSRLSDLQSAADVVCPTGDLNKVNKVAPGVEFYVAAASSEIEADARKSGAWEKLLKAGCIPLPSGCGPCIGLGAGLLEPGEVGISATNRNFKGRMGSKDALAYLASPAVVAASAVLGKISSPAEVLSTSEIPFSGVKTEIIENPVVEEEVNAQTEAPKQSVEILEGFPREFSGELVLCDADNINTDGIYPGKYTYQDDVPKEKMAQVCMENYDAEFRTKVHPGDIVVSGFNFGTGSSREQAATALLAKGINLVVSGSFGNIFSRNSINNALLTLEIPALIKKLREKYQGAPKELTRRTGWFLKWDVADAKVVVTEGSLDGPVILEQKVGELGKNLQEIIVKGGLEGWVKSQL
B4: Lip5 (protein, UniProt P32875 19-414)
chain: SSTIRCGTSATRPIRSNALNTDSDNASVRVPVGNSTEVENATSQLTGTSGKRRKGNRKRITEFKDALNLGPSFADFVSGKASKMILDPLEKARQNTEEAKKLPRWLKVPIPKGTNYHKLKGDVKELGLSTVCEEARCPNIGECWGGKDKSKATATIMLLGDTCTRGCRFCSVKTNRTPSKPDPMEPENTAEAIKRWGLGYVVLTTVDRDDLVDGGANHLAETVRKIKQKAPNTLVETLSGDFRGDLKMVDIMAQCGLDVYAHNLETVESLTPHVRDRRATYRQSLSVLERAKATVPSLITKTSIMLGLGETDEQITQTLKDLRNIQCDVVTFGQYMRPTKRHMKVVEYVKPEKFDYWKERALEMGFLYCASGPLVRSSYKAGEAFIENVLKKRNMK
B5: Bio2 (protein, UniProt P32451 17-375)
chain: TKYATNAAVKSTTASSEASTLGALQYALSLDEPSHSWTKSQLKEIYHTPLLELTHAAQLQHRKWHDPTKVQLCTLMNIKSGGCSEDCKYCAQSSRNDTGLKAEKMVKVDEVIKEAEEAKRNGSTRFCLGAAWRDMKGRKSAMKRIQEMVTKVNDMGLETCVTLGMVDQDQAKQLKDAGLTAYNHNIDTSREHYSKVITTRTYDDRLQTIKNVQESGIKACTGGILGLGESEDDHIGFIYTLSNMSPHPESLPINRLVAIKGTPMAEELADPKSKKLQFDEILRTIATARIVMPKAIIRLAAGRYTMKETEQFVCFMAGCNSIFTGKKMLTTMCNGWDEDKAMLAKWGLQPMEAFKYDRS
B6: Isa2 (protein, UniProt Q12425 1-185)
chain: MQAKLLFTRLNFRRPSTTLRQFPLTCFLFHSKAFYSDLVTKEPLITPKRIINKTPGLNLSISERASNRLAEIYRNSKENLRISVESGGCHGFQYNLTLEPATKPDIKNDVKDKEFSDDLDDDDSKDIIYVLPEDKGRVIIDSKSLNILNNTTLTYTNELIGSSFKIINGSLKSSCGCGSSFDIEN
B7: Grx5 (protein, UniProt Q02784 30-150)
chain: LSTEIRKAIEDAIESAPVVLFMKGTPEFPKCGFSRATIGLLGNQGVDPAKFAAYNVLEDPELREGIKEFSEWPTIPQLYVNKEFIGGCDVITSMARSGELADLLEEAQALVPEEEEETKDR
B8: Sdh2 (protein, UniProt P21801 21-266)
chain: TATTAAATHTPRLKTFKVYRWNPDEPSAKPHLQSYQVDLNDCGPMVLDALLKIKDEQDSTLTFRRSCREGICGSCAMNIGGRNTLACICKIDQNESKQLKIYPLPHMFIVKDLVPDLTNFYQQYKSIQPYLQRSSFPKDGTEVLQSIEDRKKLDGLYECILCACCSTSCPSYWWNQEQYLGPAVLMQAYRWLIDSRDQATKTRKAMLNNSMSLYRCHTIMNCTRTCPKGLNPGLAIAEIKKSLAFA
B9: Bol3 (endogenous) (protein, UniProt P39724 1-118)
chain: T1 sequence with C101H
B10: Prx1 (protein, UniProt P34227 14-261)
chain: AWTLPKQAHLQSQTIKTFATAPILCKQFKQSDQPRLRINSDAPNFDADTTVGKINFYDYLGDSWGVLFSHPADFTPVCTTEVSAFAKLKPEFDKRNVKLIGLSVEDVESHEKWIQDIKEIAKVKNVGFPIIGDTFRNVAFLYDMVDAEGFKNINDGSLKTVRSVFVIDPKKKIRLIFTYPSTVGRNTSEVLRVIDALQLTDKEGVVTPINWQPADDVIIPPSVSNDEAKAKFGQFNEIKPYLRFTKSK

target: T1, Bol3m (H^101C Bol3), Strep-tagged (S. cerevisiae); assay: affinity purification with mass spectrometry; Strep-tagged bait from low-copy plasmids in the corresponding single deletion mutants; Strep-Tactin purification from solubilized mitochondria; eluates analysed on a Q-Exactive; multiple independent analyses

Row | Binder | binding
1 | B1 | binds
2 | B2 | binds
3 | B3 | binds
4 | B4 | binds
5 | B5 | binds
6 | B6 | binds

target: T2, Bol1m (H^93C Bol1), Strep-tagged (S. cerevisiae); assay: as above

Row | Binder | binding
7 | B7 | no binding

target: Nfu1-Strep (S. cerevisiae); assay: as above

Row | Binder | binding
8 | B1 | binds
9 | B2 | binds
10 | B3 | binds
11 | B8 | binds
12 | B4 | binds
13 | B5 | binds
14 | B7 | binds
15 | B9 | no binding

target: T3, Bol1-Strep (S. cerevisiae); assay: as above

Row | Binder | binding
16 | B1 | no binding
17 | B2 | no binding
18 | B3 | no binding
19 | B8 | no binding
20 | B4 | no binding
21 | B5 | no binding
22 | B6 | no binding
23 | B7 | binds
24 | B10 | binds

target: T4, Bol3-Strep (S. cerevisiae); assay: as above

Row | Binder | binding
25 | B1 | binds
26 | B2 | binds
27 | B3 | binds
28 | B8 | binds
29 | B4 | binds
30 | B5 | binds
31 | B7 | binds
